The results in this text go back to PubChem BioAssay AID463193 (University of Pittsburgh Molecular Library Screening Center, 2010).

Some of the results follow.

The assay is described as follows: GFP-LC3 puncta formation changes – imaging, high-content, MEF GFP-LC3, primary screen (AID 463193).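 Also: cell loss after 18 h compound exposure.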 The settings on record: autophagy, measured here: cell loss, nuclei count, at 10 µM.
With `CP(=O)(Nc1cccc(Br)c1)Oc1ccccc1` (stereo unspecified), the toxicity was -4.2%.
